{"source": "PubChem BioAssay AID1159584, Peter MacCallum Cancer Centre, 2016", "screen": "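Genes that CDH1-null MCF10A cells selectively depend on to survive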 (primary screen)", "cell system": "human MCF10A breast epithelial cells, parental and CDH1-null", "knock-down reagent": "siRNA against human genes", "measured": "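Cell viability by CellTiter-Glo ATP luminescence, each line scaled to the mean of mock wells across plates, then CDH1-null over parental ratio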", "scale": "CDH1-null / parental viability ratio: higher = CDH1-null cells survive relatively better than parental; CDH1-null viability vs mock: higher = more viable CDH1-null cells", "note": "This is one part, drawn at random, of about 18,000 reagents tested. Not all columns of the deposit are shown. Not given: the amount of reagent, the time to read-out."}
{"gene knocked down": "SLC35E3", "CDH1-null / parental viability ratio": 1.15, "CDH1-null viability vs mock (fraction of mock)": 0.9}
{"gene knocked down": "ASMT", "CDH1-null / parental viability ratio": 1.09, "CDH1-null viability vs mock (fraction of mock)": 0.5}
{"gene knocked down": "NEK2", "CDH1-null / parental viability ratio": 0.99, "CDH1-null viability vs mock (fraction of mock)": 0.81}
{"gene knocked down": "GPATCH1", "CDH1-null / parental viability ratio": 0.96, "CDH1-null viability vs mock (fraction of mock)": 0.54}
{"gene knocked down": "C11orf71", "CDH1-null / parental viability ratio": 1.08, "CDH1-null viability vs mock (fraction of mock)": 0.55}
{"gene knocked down": "MAP2K2", "CDH1-null / parental viability ratio": 0.81, "CDH1-null viability vs mock (fraction of mock)": 0.78}
{"gene knocked down": "MS4A6A", "CDH1-null / parental viability ratio": 0.87, "CDH1-null viability vs mock (fraction of mock)": 0.53}
{"gene knocked down": "ENPP1", "CDH1-null / parental viability ratio": 1.03, "CDH1-null viability vs mock (fraction of mock)": 0.93}
{"gene knocked down": "LINS1", "CDH1-null / parental viability ratio": 1, "CDH1-null viability vs mock (fraction of mock)": 0.56}
{"gene knocked down": "IFT172", "CDH1-null / parental viability ratio": 0.84, "CDH1-null viability vs mock (fraction of mock)": 0.62}
{"gene knocked down": "CNIH3", "CDH1-null / parental viability ratio": 1.2, "CDH1-null viability vs mock (fraction of mock)": 0.84}
{"gene knocked down": "SLC25A42", "CDH1-null / parental viability ratio": 0.91, "CDH1-null viability vs mock (fraction of mock)": 0.75}
{"gene knocked down": "NOTCH2NLA", "CDH1-null / parental viability ratio": 1.25, "CDH1-null viability vs mock (fraction of mock)": 0.7}
{"gene knocked down": "OR14J1", "CDH1-null / parental viability ratio": 1.08, "CDH1-null viability vs mock (fraction of mock)": 0.68}
{"gene knocked down": "FGF11", "CDH1-null / parental viability ratio": 0.95, "CDH1-null viability vs mock (fraction of mock)": 0.97}
{"gene knocked down": "UBL7", "CDH1-null / parental viability ratio": 0.97, "CDH1-null viability vs mock (fraction of mock)": 0.76}
{"gene knocked down": "CALML4", "CDH1-null / parental viability ratio": 1.21, "CDH1-null viability vs mock (fraction of mock)": 0.94}
{"gene knocked down": "ADH7", "CDH1-null / parental viability ratio": 1.13, "CDH1-null viability vs mock (fraction of mock)": 0.7}
{"gene knocked down": "THOC2", "CDH1-null / parental viability ratio": 0.95, "CDH1-null viability vs mock (fraction of mock)": 0.74}
{"gene knocked down": "PRPF8", "CDH1-null / parental viability ratio": 1.56, "CDH1-null viability vs mock (fraction of mock)": 0.28}
{"gene knocked down": "TULP1", "CDH1-null / parental viability ratio": 0.95, "CDH1-null viability vs mock (fraction of mock)": 0.99}
{"gene knocked down": "TMC6", "CDH1-null / parental viability ratio": 1.13, "CDH1-null viability vs mock (fraction of mock)": 0.7}
{"gene knocked down": "HOXA11", "CDH1-null / parental viability ratio": 0.84, "CDH1-null viability vs mock (fraction of mock)": 0.84}
{"gene knocked down": "SLC49A4", "CDH1-null / parental viability ratio": 0.76, "CDH1-null viability vs mock (fraction of mock)": 0.74}
{"gene knocked down": "NABP2", "CDH1-null / parental viability ratio": 0.94, "CDH1-null viability vs mock (fraction of mock)": 0.92}
{"gene knocked down": "CAPZA2", "CDH1-null / parental viability ratio": 1.06, "CDH1-null viability vs mock (fraction of mock)": 1.12}
{"gene knocked down": "HSPB2", "CDH1-null / parental viability ratio": 0.99, "CDH1-null viability vs mock (fraction of mock)": 0.77}
{"gene knocked down": "THOC6", "CDH1-null / parental viability ratio": 0.94, "CDH1-null viability vs mock (fraction of mock)": 0.91}
{"gene knocked down": "LSS", "CDH1-null / parental viability ratio": 1.38, "CDH1-null viability vs mock (fraction of mock)": 1.02}
{"gene knocked down": "DNAL4", "CDH1-null / parental viability ratio": 0.86, "CDH1-null viability vs mock (fraction of mock)": 0.72}
{"gene knocked down": "SAMD9", "CDH1-null / parental viability ratio": 1.22, "CDH1-null viability vs mock (fraction of mock)": 0.88}
{"gene knocked down": "DPYSL4", "CDH1-null / parental viability ratio": 1.18, "CDH1-null viability vs mock (fraction of mock)": 0.99}
{"gene knocked down": "KLHL22", "CDH1-null / parental viability ratio": 1.16, "CDH1-null viability vs mock (fraction of mock)": 1.04}
{"gene knocked down": "PLCG2", "CDH1-null / parental viability ratio": 0.8, "CDH1-null viability vs mock (fraction of mock)": 0.48}
{"gene knocked down": "ARHGDIG", "CDH1-null / parental viability ratio": 1.14, "CDH1-null viability vs mock (fraction of mock)": 0.91}
